The target in experiment [1] is HA-PP2Ac (wild type catalytic subunit of protein phosphatase 2A) (human (cDNA from HeLa mRNA)) (UniProt P67775). Description: proximity ligation; Duolink PLA on fixed, permeabilised αT3-1 or PC3 cells transfected with HA-PP2Ac or its mutants; anti-HA together with Ab to the partner; cells untreated or stimulated with TPA (250 nM).
The target is the same in experiment [2]. Briefly: co-IP; HA-PP2Ac (wild type or mutant) precipitated with anti-HA Ab on Protein A/G beads from extracts of transfected, serum-starved αT3-1 or PC3 cells; cells untreated or stimulated with TPA (250 nM), GnRH-a or PGF2α, with or without PKC inhibitor GFx (3 µM, 20 min); partners detected by Western blotting. For orientation: In western blotting, separated proteins are transferred to a membrane and probed.

Experiment [3] concerns the target S24E-PP2Ac (phosphomimetic mutant of HA-PP2Ac) (human (cDNA from HeLa mRNA)) (UniProt P67775). Briefly: proximity ligation; Duolink PLA on fixed, permeabilised αT3-1 or PC3 cells transfected with HA-PP2Ac or its mutants; anti-HA together with Ab to the partner; cells untreated or stimulated with TPA (250 nM).
Experiment [4] deals with S24A-PP2Ac (unphosphorylatable mutant of HA-PP2Ac) (human (cDNA from HeLa mRNA)) (UniProt P67775). The experiment is described as above.
The target in experiment [5] is HA-PP2Ac (wild type catalytic subunit of protein phosphatase 2A) (human (cDNA from HeLa mRNA)) (UniProt P67775). The description is as above. This is another data set of the same source.
Experiment [6] has the same target. Description: co-IP; HA-PP2Ac (wild type or mutant) precipitated with anti-HA Ab on Protein A/G beads from extracts of transfected, serum-starved αT3-1 or PC3 cells; cells untreated or stimulated with TPA (250 nM), GnRH-a or PGF2α, with or without PKC inhibitor GFx (3 µM, 20 min); partners detected by Western blotting. The source holds these as a separate data set.

Drawing on article PMC10900696, this text covers binding for 4 molecules.

Results are given in words; binding and its absence hold for the method and conditions named. In cells and extracts the contact can be indirect. Some entries that bind do so weakly or less than the wild type.

Consider “PKCα, endogenous in PC3 cells (from UniProt P17252 1-672) (enzyme)”, for which the binding entry in experiment [1] and in experiment [2] was “binds” in each case.
On to “PKCα, endogenous in αT3-1 cells (from UniProt P20444 1-672) (enzyme)”, for which the binding entry in experiment [1] and in experiment [2] was “binds” in each case.

B1: IGBP1, endogenous in PC3 cells (protein, UniProt P78318 1-339)
chain: MAAEDELQLPRLPELFETGRQLLDEVEVATEPAGSRIVQEKVFKGLDLLEKAAEMLSQLDLFSRNEDLEEIASTDLKYLLVPAFQGALTMKQVNPSKRLDHLQRAREHFINYLTQCHCYHVAEFELPKTMNNSAENHTANSSMAYPSLVAMASQRQAKIQRYKQKKELEHRLSAMKSAVESGQADDERVREYYLLHLQRWIDISLEEIESIDQEIKILRERDSSREASTSNSSRQERPPVKPFILTRNMAQAKVFGAGYPSLPTMTVSDWYEQHRKYGALPDQGIAKAAPEEFRKAAQQQEEQEEKEEEDDEQTLHRAREWDDWKDTHPRGYGNRQNMG
For the molecule B1, the binding entry in experiment [3] and in experiment [4] was “binds” throughout.

B2: IGBP1, endogenous in αT3-1 cells (protein, UniProt Q61249 1-340)
chain: MAASEDELLLPRLPELFETSKKLLEDVEVATEPTGSRTIQDKVSKGLELLEKAAGMLSQLDLFSRNEDLEEIASTDLKYLMVPALQGALTMKQVNPSKRLDHLQRAREHFVHFLTQCHCYHVAEFQLPQTKTNSAENNTASSSMAYPNLVAMASQRQAKIERYKQKKEVEHRLSALKSAVESGQADDERVREYHLLHLRRWIAVSLEELESIDQEIKILKEKDSPREETACHSSLPEKPPMKPFILTRNKAQAKVFGTGYPSLATMTVSDWYEQHQKYGVLPDRGIAKPASADFQRAAQQQEDQEQKDEESEEKALHRMREWDDWKDTHPRGYGNRQNMG
Take B2: the binding result in experiment [3], in experiment [4], in experiment [5] and in experiment [6] was “binds” throughout.
